Laboratory results published in article PMC11977219.

By UniProt entry, the sequences of proteins in these tests, tags left out.
UniProt O95071: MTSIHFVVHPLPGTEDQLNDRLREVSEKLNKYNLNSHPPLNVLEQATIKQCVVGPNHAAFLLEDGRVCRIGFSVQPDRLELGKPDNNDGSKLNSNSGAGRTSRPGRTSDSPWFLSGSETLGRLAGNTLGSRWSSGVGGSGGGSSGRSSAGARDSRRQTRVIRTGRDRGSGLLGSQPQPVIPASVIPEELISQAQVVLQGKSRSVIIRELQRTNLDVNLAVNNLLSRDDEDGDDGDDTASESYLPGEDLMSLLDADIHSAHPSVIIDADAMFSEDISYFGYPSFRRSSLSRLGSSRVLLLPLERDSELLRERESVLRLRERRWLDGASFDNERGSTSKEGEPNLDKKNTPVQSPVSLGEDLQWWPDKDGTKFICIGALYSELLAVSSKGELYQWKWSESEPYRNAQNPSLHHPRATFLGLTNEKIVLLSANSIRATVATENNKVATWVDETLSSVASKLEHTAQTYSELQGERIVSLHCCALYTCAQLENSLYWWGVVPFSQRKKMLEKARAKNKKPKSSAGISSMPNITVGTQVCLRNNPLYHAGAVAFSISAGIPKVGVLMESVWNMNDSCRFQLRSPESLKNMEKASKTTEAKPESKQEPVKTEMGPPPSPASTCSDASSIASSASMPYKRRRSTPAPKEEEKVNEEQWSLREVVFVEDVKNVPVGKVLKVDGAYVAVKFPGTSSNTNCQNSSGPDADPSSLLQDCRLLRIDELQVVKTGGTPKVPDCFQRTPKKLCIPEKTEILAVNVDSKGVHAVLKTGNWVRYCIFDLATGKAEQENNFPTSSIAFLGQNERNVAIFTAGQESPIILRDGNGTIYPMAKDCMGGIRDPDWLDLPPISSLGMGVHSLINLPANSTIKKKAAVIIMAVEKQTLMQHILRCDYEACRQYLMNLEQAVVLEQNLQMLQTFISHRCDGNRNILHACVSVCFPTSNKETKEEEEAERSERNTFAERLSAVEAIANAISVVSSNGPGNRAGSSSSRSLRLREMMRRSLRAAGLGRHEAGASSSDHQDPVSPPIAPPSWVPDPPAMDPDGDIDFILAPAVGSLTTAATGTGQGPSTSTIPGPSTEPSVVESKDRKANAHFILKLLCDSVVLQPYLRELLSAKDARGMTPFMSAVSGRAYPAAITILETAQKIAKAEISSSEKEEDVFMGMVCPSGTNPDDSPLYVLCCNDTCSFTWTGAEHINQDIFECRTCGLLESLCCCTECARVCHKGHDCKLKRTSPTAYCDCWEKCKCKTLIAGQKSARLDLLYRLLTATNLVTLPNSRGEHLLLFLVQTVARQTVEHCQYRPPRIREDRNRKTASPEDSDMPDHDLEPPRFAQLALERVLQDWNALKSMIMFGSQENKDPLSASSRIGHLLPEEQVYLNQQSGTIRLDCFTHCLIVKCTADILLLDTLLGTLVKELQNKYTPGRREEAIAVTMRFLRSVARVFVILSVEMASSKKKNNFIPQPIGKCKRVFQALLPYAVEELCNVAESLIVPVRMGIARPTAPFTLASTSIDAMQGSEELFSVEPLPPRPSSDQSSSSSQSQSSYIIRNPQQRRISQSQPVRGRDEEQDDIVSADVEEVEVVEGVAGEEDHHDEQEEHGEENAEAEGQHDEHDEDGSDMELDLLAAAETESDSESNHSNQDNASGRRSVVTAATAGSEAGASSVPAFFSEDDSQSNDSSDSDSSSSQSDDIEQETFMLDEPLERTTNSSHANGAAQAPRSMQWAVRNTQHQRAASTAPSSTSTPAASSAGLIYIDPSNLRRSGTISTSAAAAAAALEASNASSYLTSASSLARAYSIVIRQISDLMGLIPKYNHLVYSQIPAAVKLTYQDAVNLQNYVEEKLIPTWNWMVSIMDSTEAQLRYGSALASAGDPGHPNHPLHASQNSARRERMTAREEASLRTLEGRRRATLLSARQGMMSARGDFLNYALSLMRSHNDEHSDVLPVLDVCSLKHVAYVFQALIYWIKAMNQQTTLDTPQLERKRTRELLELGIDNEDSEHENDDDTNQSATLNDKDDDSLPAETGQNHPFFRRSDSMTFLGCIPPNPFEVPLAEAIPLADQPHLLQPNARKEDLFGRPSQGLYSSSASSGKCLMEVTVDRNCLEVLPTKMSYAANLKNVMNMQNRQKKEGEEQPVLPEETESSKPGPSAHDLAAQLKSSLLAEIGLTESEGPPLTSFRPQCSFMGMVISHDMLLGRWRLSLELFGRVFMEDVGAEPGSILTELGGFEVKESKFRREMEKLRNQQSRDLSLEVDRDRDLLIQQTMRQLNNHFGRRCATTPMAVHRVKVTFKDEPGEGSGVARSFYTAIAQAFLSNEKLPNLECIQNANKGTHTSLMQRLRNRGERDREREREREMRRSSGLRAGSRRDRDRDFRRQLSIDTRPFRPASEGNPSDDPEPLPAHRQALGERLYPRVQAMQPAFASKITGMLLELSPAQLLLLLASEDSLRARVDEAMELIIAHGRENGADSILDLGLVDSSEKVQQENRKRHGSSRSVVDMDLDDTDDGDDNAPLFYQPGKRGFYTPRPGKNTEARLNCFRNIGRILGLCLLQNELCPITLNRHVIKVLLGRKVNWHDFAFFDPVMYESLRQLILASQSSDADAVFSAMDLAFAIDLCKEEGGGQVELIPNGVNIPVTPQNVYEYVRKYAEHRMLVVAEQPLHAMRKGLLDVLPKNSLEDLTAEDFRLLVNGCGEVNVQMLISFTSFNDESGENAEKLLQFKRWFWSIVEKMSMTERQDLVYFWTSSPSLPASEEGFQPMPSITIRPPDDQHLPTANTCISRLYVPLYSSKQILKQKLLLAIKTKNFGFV
UniProt P42224: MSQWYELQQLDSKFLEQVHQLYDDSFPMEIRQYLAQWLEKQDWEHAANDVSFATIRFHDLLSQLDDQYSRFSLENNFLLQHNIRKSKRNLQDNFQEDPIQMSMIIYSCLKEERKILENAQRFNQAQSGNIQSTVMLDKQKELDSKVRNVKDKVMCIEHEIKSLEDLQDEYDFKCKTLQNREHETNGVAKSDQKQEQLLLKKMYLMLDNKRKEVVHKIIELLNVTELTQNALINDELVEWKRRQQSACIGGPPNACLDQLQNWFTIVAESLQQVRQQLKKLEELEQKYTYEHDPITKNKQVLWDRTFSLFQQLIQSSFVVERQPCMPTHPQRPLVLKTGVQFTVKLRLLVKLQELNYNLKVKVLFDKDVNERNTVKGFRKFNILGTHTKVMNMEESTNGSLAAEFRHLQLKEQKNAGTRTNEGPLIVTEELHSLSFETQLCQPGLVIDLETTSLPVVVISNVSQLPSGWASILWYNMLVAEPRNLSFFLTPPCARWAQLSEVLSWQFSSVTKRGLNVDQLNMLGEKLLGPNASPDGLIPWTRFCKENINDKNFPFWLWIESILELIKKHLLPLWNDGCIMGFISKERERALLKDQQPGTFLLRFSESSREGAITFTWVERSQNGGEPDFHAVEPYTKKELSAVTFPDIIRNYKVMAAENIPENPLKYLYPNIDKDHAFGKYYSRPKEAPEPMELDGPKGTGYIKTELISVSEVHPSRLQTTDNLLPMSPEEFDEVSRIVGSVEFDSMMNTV

Molecular target: T1, Flag-tagged human Viperin (human) (UniProt Q8WXG1)
T1 sequence: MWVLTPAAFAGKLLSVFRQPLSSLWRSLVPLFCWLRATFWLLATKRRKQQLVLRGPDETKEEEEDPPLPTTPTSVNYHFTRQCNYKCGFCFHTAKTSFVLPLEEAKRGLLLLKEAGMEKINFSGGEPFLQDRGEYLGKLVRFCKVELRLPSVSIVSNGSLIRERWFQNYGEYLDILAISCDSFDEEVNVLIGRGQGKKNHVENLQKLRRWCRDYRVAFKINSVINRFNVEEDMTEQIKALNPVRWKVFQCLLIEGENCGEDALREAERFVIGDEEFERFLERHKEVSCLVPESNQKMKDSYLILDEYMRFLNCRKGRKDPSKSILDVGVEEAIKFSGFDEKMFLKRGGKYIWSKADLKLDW
Assay: affinity purification with mass spectrometry; HEK293T cells transfected with empty vector or Flag-Viperin, 48 h; NP-40 lysis buffer (150 mM NaCl, 20 mM Tris-HCl pH 7.4, 1% NP-40, 0.5 mM EDTA); Flag-Viperin pulled down with M2 affinity gel; gel bands analysed by Orbitrap Elite

Substance	binding
UBR5 (endogenous, HEK293T) (from UniProt O95071 1-2799) (enzyme)	binds
STAT1 (endogenous, HEK293T) (from UniProt P42224 1-750)	binds

Results are given in words; binding and its absence hold for the method and conditions named. In cells and extracts the contact can be indirect. Here binding means that the protein was enriched with, or labelled near, the bait; the list need not be complete. Sequences can lack the tags named with a protein.
